# Source: PubChem BioAssay AID588590 (National Center for Advancing Translational Sciences (NCATS), 2011)
# Protein sequences, listed by entry. Tags and fused reporters are not part of them. Lines headed by an entry give the natural chain unless they say otherwise; changes in a name come on top.
# UniProt Q9UNA4: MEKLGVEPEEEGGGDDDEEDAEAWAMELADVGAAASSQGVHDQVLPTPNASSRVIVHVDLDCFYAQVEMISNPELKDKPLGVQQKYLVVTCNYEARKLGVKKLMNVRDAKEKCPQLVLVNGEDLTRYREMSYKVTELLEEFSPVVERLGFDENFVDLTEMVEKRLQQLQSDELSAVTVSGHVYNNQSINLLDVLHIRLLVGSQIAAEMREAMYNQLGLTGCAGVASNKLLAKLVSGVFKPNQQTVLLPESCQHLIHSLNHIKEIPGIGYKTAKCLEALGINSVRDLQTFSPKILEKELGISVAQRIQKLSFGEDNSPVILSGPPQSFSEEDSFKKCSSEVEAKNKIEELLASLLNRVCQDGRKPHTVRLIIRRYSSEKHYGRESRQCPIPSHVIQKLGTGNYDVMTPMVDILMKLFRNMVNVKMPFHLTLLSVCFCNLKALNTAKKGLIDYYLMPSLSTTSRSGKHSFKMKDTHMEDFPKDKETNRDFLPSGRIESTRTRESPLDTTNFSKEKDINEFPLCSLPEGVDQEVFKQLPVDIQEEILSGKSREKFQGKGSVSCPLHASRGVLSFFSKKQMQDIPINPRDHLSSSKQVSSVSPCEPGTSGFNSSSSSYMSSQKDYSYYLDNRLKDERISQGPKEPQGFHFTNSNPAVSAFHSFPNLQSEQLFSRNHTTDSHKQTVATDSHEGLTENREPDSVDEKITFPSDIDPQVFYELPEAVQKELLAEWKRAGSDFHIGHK
# The whole screen tested about 390,000 compounds, of which about 4,000 (1%) were called active. This list was built around the results that the source calls inconclusive (neither active nor inactive); the mix of calls is not that of the screen. The call rests on the fitted dose curve; in most records, active means well fitted inhibition curve with a large enough effect; inconclusive means small, poorly fitted or top-dose-only effect, or another doubt; inactive means no such curve, though single readings can be large or run the other way. Where the call is inconclusive, the potency comes from a doubtful curve fit.
# Target: DNA polymerase iota (Homo sapiens) (UniProt Q9UNA4)
# Experiment: qHTS for Inhibitors of Polymerase Iota
# Conditions: Pol iota fluorescent replication assay, 10 min; series mostly up to 115 µM
# Summary of the method: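 Pol iota at 10 nM preincubated 15 min with compounds at room temperature; reaction started with fluorescent substrate, 50 nM final. Fluorescence read kinetically at 0 and 10 min; buffer-only wells as negative control.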
# Potency means the concentration at half of the fitted maximal effect.
row,Compound,Potency
1,CC(C)(C)c1nc2sc3c(c2c(=O)o1)CCCC3,"inconclusive: 3.55 µM [inhibitor, full curve, poor fit]"
2,COc1ccc(S(=O)(=O)N2CCCCC2)cc1NC(=O)C1CCCC1,"inconclusive: 70.8 µM [inhibitor, single point]"
3,CCCCOC(=O)C1=C(C)NC2(O)c3ccccc3C(=O)C12O (stereo not drawn),"inconclusive: 2 µM [inhibitor, partial curve, poor fit]"
4,Cc1c(C(=O)NCCCN2CCCCC2)oc2ccc3c(c12)C(O)CC1(CCCCC1)O3 (stereo not drawn),"inconclusive: 39.8 µM [inhibitor, single point]"
5,CCN(CC)Cc1cc(Nc2c3ccccc3nc3c4ccccc4n(C)c23)cc(CN(CC)CC)c1O,"inconclusive: 89.1 µM [inhibitor, partial curve, poor fit]"
6,Cc1ccc(-c2nc(-c3ccccc3)no2)c(Cl)c1,"inconclusive: 31.6 µM [inhibitor, partial curve, poor fit]"
7,O=C(CSc1nc2c(cnn2-c2ccccc2)c(=O)[nH]1)N1CCOCC1,"inconclusive: 20 µM [inhibitor, single point]"
8,Cc1cc(C)c(S(=O)(=O)N/N=C/c2ccc([N+](=O)[O-])o2)c(C)c1,"inconclusive: 89.1 µM [inhibitor, single point]"
9,Cc1[nH]n(-c2ccc(Cl)cc2)c(=O)c1/C=N/n1c(C)nc2ccccc2c1=O,"inconclusive: 39.8 µM [inhibitor, single point]"
10,O=C(Nc1ccccn1)c1cc2ccccc2cc1O,"inconclusive: 28.2 µM [inhibitor, partial curve]"
11,N#CC1=C(N)C2=CCCC[C@H]2[C@H](c2ccc(Br)cc2)C1(C#N)C#N,"inconclusive: 35.5 µM [inhibitor, single point]"
12,C/C(N)=C(/C#N)C(=O)COC(=O)c1ccc(OCC2CCCO2)cc1 (stereo not drawn),"inconclusive: 56.2 µM [inhibitor, partial curve, poor fit]"
13,CC1=C(C)CC(C(=O)NC2CCCC2)C(C(=O)O)C1 (stereo not drawn),inactive
14,Cn1cnc(S(=O)(=O)N2CCN(c3cccc(C(F)(F)F)c3)CC2)c1,inactive
15,O=C(c1ccc2c(=O)n(Cc3ccco3)c(=S)[nH]c2c1)N1CCCC1,"inconclusive: 79.4 µM [inhibitor, partial curve, poor fit]"
16,O=C(NCc1ccccc1)C(c1ccco1)N(C(=O)c1csnn1)c1ccccc1F (stereo not drawn),"inconclusive: 22.4 µM [inhibitor, partial curve, poor fit]"
17,CCn1nc(C)c(CCN(C)C(=O)Nc2cc(OC)c(OC)c(OC)c2)c1C,inactive
18,Cc1ccc(CNC(=O)CCn2cnc3ccccc3c2=O)cc1,"inconclusive: 89.1 µM [inhibitor, single point]"
19,Cc1ccc(S(=O)(=O)N2CCN(C(=O)CN3CCN(c4ccc(O)cc4)CC3)CC2)cc1,"inconclusive: 39.8 µM [inhibitor, partial curve, poor fit]"
20,COc1ccc(-n2c(C)nc(=O)c(-c3ccccc3)c2C)cc1,"inconclusive: 39.8 µM [inhibitor, single point]"
21,C=CCc1c(C)nc(-c2ccccc2)nc1N/N=C/c1ccccc1,"inconclusive: 50.1 µM [inhibitor, single point]"
22,Fc1cccc(-c2nnn3c2nc(NCCc2ccccc2)c2ccccc23)c1,inactive
23,Cc1ccc(NC(=O)C2CCCCC2C(=O)O)cc1Cl (stereo not drawn),"inconclusive: 79.4 µM [inhibitor, single point]"

# Fetched by structure from the entries so far, three records:
row,Compound,Potency
19,Cc1ccc(S(=O)(=O)N2CCN(C(=O)CN3CCN(c4ccc(O)cc4)CC3)CC2)cc1,"inconclusive: 39.8 µM [inhibitor, partial curve, poor fit]"
8,Cc1cc(C)c(S(=O)(=O)N/N=C/c2ccc([N+](=O)[O-])o2)c(C)c1,"inconclusive: 89.1 µM [inhibitor, single point]"
6,Cc1ccc(-c2nc(-c3ccccc3)no2)c(Cl)c1,"inconclusive: 31.6 µM [inhibitor, partial curve, poor fit]"

# Later entries.

row,Compound,Potency
1,Nc1nc2c(nc(Br)n2C2O[C@H]3COP(=O)(O)O[C@@H]3C2O)c(=O)[nH]1 (stereo partly drawn),inactive
2,Nc1ccc(-c2nc3ccc(N)cc3[nH]2)cc1,inactive
3,CCc1nnc(N/N=C/c2ccccc2Cl)n1N,"inconclusive: 7.08 µM [inhibitor, full curve, poor fit]"
4,CCCCN(CC)C(=O)CSc1c2c(nc3ccc(Cl)cc13)CCCC2,inactive
5,Cn1c(SCC(=O)Nc2sccc2C#N)nnc1C1CC1,"inconclusive: 20 µM [inhibitor, partial curve, poor fit]"
6,COC(=O)c1c(NC(=O)/C(C#N)=C/c2ccccc2)sc2c1CCC2,"inconclusive: 89.1 µM [inhibitor, single point]"
7,CCOc1ccc(NC(=O)c2sc3nc4c(c(-c5ccc(OC)cc5)c3c2N)C(=O)CC(C)(C)C4)cc1,inactive
8,CCOc1ccc(-n2cc(-c3ccccc3)c3c(N4CCN(c5ccccc5OC)CC4)ncnc32)cc1,inactive
9,C/C=C\C=C/C(=O)Nc1cccc(C2=NOC3(C2)C[C@@H](C(N)=O)N(C(=O)c2ccc(Cl)cc2)C3)c1 (stereo partly drawn),inactive
10,CCCCS(=O)(=O)/C=C\C=C/S(=O)(=O)CCCC,"inconclusive: 25.1 µM [inhibitor, partial curve, poor fit]"
11,COc1cccc(C(=O)NC2=NCCS2)c1,"inconclusive: 14.1 µM [inhibitor, single point]"
12,C/C(=N\NC(=O)Cc1cccn1C)c1ccc([N+](=O)[O-])cc1,"inconclusive: 14.1 µM [inhibitor, full curve, poor fit]"
13,O=C1CC2c3ccccc3C1C1C(=O)N(CCO)C(=O)C21 (stereo not drawn),"inconclusive: 89.1 µM [inhibitor, single point]"
14,COc1cccc(-c2nc(CS(=O)CC(=O)O)c(C)o2)c1 (stereo not drawn),"inconclusive: 0.708 µM [inhibitor, full curve, poor fit]"
15,CN(CC(=O)Nc1ccc(N2CCOCC2)cc1)C(=O)CSc1ccc(F)cc1,inactive
16,CCOC(=O)c1c(C)[nH]c(C)c1S(=O)(=O)N1CCCC(C(=O)NCc2ccc(Cl)cc2)C1 (stereo not drawn),inactive
17,O=C1CN(C(=O)COC(=O)c2cccc(Br)c2)c2ccccc2N1,"inconclusive: 89.1 µM [inhibitor, partial curve, poor fit]"
18,CC(=O)c1cccc(N=Cc2c(O)ccc3ccccc23)c1,"inconclusive: 35.5 µM [inhibitor, single point]"
19,CN(Cc1ccccc1)c1ccc(-c2nc(-c3ccccn3)no2)cc1[N+](=O)[O-],inactive
20,O=C(NC1(C(F)(F)F)C(=O)Nc2c1c(=O)[nH]c(=O)n2-c1ccc(Cl)cc1)c1ccccc1F (stereo not drawn),inactive
21,Cc1ccc(C(=O)CSc2nnc(-c3ccco3)n2C)cc1,inactive
22,C=CCn1c(=O)[nH]c2nc3cc(N=CN(C)C)c(C)cc3nc2c1=O,inactive
23,Cc1ccccc1OCCn1c(-c2ccc(Cl)cc2)nc2ccccc2c1=O,inactive

row,Compound,Potency
1,Cc1cccc(NC(=O)Cn2cc(C(=O)c3ccco3)c3ccccc32)c1,"inconclusive: 89.1 µM [inhibitor, single point]"
2,C/C(=N/NC(=O)C(O)(c1ccccc1)c1ccccc1)c1ccc([N+](=O)[O-])o1,"inconclusive: 22.4 µM [inhibitor, full curve]"
3,O=[N+]([O-])c1ccc(Oc2cc(NC3CCCCCCC3)c([N+](=O)[O-])cc2[N+](=O)[O-])cc1,"inconclusive: 79.4 µM [inhibitor, partial curve]"
4,CC/C(=N\NC(=O)c1ccc(-c2ccccc2)cc1)C12CC3CC(CC(C3)C1)C2,"inconclusive: 5.62 µM [inhibitor, full curve, poor fit]"
5,CCOc1ccc(NC(=O)CSc2nnc(-c3ccc(OCC)cc3)o2)cc1,inactive
6,COC(=O)c1ccccc1NC(=O)CSc1nc(=O)cc(N)n1-c1ccccc1,"inconclusive: 89.1 µM [inhibitor, single point]"
7,COc1ccccc1N/C(N)=N/c1nc(CSc2ccc(C)cc2)cc(=O)[nH]1,"inconclusive: 28.2 µM [inhibitor, partial curve, poor fit]"
8,O=[N+]([O-])c1ccc(N=Nc2ccc(O)cc2O)cc1,inactive
9,CC(=O)Oc1ccc2occ(-c3ccccc3)c2c1,inactive
10,Cc1ccsc1/C=C1/NC(=O)N(Cc2ccc(F)cc2)C1=O,"inconclusive: 100 µM [inhibitor, partial curve, poor fit]"
11,CCC(=O)Nc1ccc(N2CCN(C(=O)c3cccs3)CC2)cc1,"inconclusive: 39.8 µM [inhibitor, single point]"
12,CCOC(=O)c1cnc2c(ccc3ccccc32)c1NCCCN(C)C,"inconclusive: 31.6 µM [inhibitor, partial curve]"
13,CCCCCCCCCCC[N+](C)(C)CC/C=C1/c2ccccc2Sc2ccc(Cl)cc21,inactive
14,O=C(NCCN1CCc2ccccc2C1)C1CC(=O)N(C2CCCC2)C1 (stereo not drawn),"inconclusive: 79.4 µM [inhibitor, single point]"
15,COc1cc(OC)c(OC)cc1/C=C/c1nccc2ccccc12,"inconclusive: 112 µM [inhibitor, partial curve, poor fit]"
16,CCCS(=O)(=O)N1CCN(Cc2ccccc2OCC)CC1,inactive
17,COc1ccc(NC(=O)COC(=O)c2ccc(-n3cnnn3)cc2)cc1Cl,"inconclusive: 15.8 µM [inhibitor, full curve, poor fit]"
18,Cc1cc(S(=O)(=O)NCC(c2ccco2)S(=O)(=O)c2cccs2)ccc1F (stereo not drawn),"inconclusive: 22.4 µM [inhibitor, partial curve, poor fit]"
19,CC12CCC(C(=O)Nc3ccc(SC(F)F)cc3)(CC1=O)C2(C)C (stereo not drawn),"inconclusive: 10 µM [inhibitor, partial curve, poor fit]"
20,COc1ccc(NC(=O)CSc2nnc(NC(=O)NC3CCCCC3)s2)cc1OC,inactive
21,O=C(NCCc1ccccc1)c1nn(-c2ccc(F)cc2)nc1CO,inactive
22,CCc1ccc(-n2c(=S)sc3c(=O)n(-c4ccccc4C)c(SCC(=O)O)nc32)cc1,"inconclusive: 14.1 µM [inhibitor, partial curve]"
